Test results taken from PMC9729029.
These are yes or no findings as the source states them, for the method shown. In cells and extracts the contact can be indirect. Some results given as binding are weak or reduced against the parent protein; the word gives no strength.

Sequences of proteins named here, by UniProt entry; tags and fusion partners are left off.
UniProt Q9EPK5: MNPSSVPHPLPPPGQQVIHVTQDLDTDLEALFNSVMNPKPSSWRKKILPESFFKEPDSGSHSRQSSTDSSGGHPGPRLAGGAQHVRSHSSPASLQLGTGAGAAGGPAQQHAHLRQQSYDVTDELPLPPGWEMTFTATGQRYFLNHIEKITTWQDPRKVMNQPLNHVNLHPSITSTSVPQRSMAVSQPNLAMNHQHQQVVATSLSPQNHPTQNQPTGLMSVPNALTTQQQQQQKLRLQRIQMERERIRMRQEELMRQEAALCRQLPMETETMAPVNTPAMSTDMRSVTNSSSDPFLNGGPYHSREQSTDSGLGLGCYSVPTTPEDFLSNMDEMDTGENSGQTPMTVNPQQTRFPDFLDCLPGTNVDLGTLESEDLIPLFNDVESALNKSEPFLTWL

T1: Never-in-mitosis A-related kinase 8 (NEK8) (UniProt Q91ZR4)
T1 sequence: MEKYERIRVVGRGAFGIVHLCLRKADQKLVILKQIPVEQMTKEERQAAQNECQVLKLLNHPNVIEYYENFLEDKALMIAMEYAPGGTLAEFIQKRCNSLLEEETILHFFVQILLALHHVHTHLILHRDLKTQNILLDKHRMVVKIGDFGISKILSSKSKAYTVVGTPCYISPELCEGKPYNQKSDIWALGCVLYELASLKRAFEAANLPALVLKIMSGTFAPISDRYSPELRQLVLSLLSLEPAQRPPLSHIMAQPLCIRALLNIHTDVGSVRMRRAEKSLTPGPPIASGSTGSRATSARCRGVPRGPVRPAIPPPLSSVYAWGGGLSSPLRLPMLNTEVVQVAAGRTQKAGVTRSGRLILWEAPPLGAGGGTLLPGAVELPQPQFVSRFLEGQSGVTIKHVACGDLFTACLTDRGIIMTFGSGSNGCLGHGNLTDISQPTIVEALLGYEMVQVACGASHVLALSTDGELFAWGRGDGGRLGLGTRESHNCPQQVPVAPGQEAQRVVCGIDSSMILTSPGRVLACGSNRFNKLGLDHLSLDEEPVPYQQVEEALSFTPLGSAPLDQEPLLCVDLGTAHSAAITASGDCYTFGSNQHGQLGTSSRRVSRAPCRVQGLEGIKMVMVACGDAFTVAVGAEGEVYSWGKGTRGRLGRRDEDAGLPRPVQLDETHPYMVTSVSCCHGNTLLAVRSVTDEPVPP


How the values were obtained:
[1] = target: T1, Never-in-mitosis A-related kinase 8 (NEK8); test: co-IP; lysate (RIPA buffer) of 3T3-L1 cells transfected with the NEK8 overexpression plasmid; 1 ug antibody against NEK8 or TAZ in 200 uL lysate, 4°C, 2 h; agarose A/G; rabbit IgG as negative control; western blot
[2] = target: TAZ (Tafazzin, an oncogenic transcriptional regulator; also called WWTR1) (mouse (endogenous in 3T3-L1)) (UniProt Q9EPK5); test: as above

Molecule	binding [1]	binding [2]
TAZ (Tafazzin, an oncogenic transcriptional regulator; also called WWTR1) (from UniProt Q9EPK5 1-395)	binds	
Never-in-mitosis A-related kinase 8 (NEK8) (enzyme, UniProt Q91ZR4 1-698) MEKYERIRVVGRGAFGIVHLCLRKADQKLVILKQIPVEQMTKEERQAAQNECQVLKLLNHPNVIEYYENFLEDKALMIAMEYAPGGTLAEFIQKRCNSLLEEETILHFFVQILLALHHVHTHLILHRDLKTQNILLDKHRMVVKIGDFGISKILSSKSKAYTVVGTPCYISPELCEGKPYNQKSDIWALGCVLYELASLKRAFEAANLPALVLKIMSGTFAPISDRYSPELRQLVLSLLSLEPAQRPPLSHIMAQPLCIRALLNIHTDVGSVRMRRAEKSLTPGPPIASGSTGSRATSARCRGVPRGPVRPAIPPPLSSVYAWGGGLSSPLRLPMLNTEVVQVAAGRTQKAGVTRSGRLILWEAPPLGAGGGTLLPGAVELPQPQFVSRFLEGQSGVTIKHVACGDLFTACLTDRGIIMTFGSGSNGCLGHGNLTDISQPTIVEALLGYEMVQVACGASHVLALSTDGELFAWGRGDGGRLGLGTRESHNCPQQVPVAPGQEAQRVVCGIDSSMILTSPGRVLACGSNRFNKLGLDHLSLDEEPVPYQQVEEALSFTPLGSAPLDQEPLLCVDLGTAHSAAITASGDCYTFGSNQHGQLGTSSRRVSRAPCRVQGLEGIKMVMVACGDAFTVAVGAEGEVYSWGKGTRGRLGRRDEDAGLPRPVQLDETHPYMVTSVSCCHGNTLLAVRSVTDEPVPP		binds
